No constants are given. Whether binding was seen depends on the method and setting. For some of these results: A result given as binding can be weak or reduced; the word gives no strength.
Legend:
[1] = biological target: T1, mouse MET extracellular domain (ECD) (mouse, UniProt P16056 25-931); assay: SPR and ELISA, periplasmic Fab
T1 construct: range 1-931; recombinant ECD; also called mMET; mouse MET ECD

[2] = biological target: T2, human MET extracellular domain (ECD) (human, UniProt P08581 25-932); assay: SPR and ELISA, periplasmic Fab
T2 construct: range 1-932; recombinant ECD; also called hMET; human MET ECD

[3] = biological target: llama-human MET chimeric protein CH2; assay: ELISA, protein in solid phase, mAb 0-20 nM
[4] = biological target: llama-human MET chimeric protein CH1; assay: ELISA, protein in solid phase, mAb 0-20 nM
[5] = biological target: llama-human MET chimeric protein CH3; assay: ELISA, protein in solid phase, mAb 0-20 nM
[6] = biological target: T2, human MET extracellular domain (ECD); assay: ELISA, protein in solid phase, mAb 0-20 nM
[7] = biological target: llama-human MET chimeric protein CH6; assay: ELISA, protein in solid phase, mAb 0-20 nM
[8] = biological target: llama-human MET chimeric protein CH7; assay: ELISA, protein in solid phase, mAb 0-20 nM
[9] = biological target: T1, mouse MET extracellular domain (ECD); assay: ELISA, MET ECD in solid phase
[10] = biological target: T2, human MET extracellular domain (ECD); assay: ELISA, MET ECD in solid phase
[11] = biological target: llama-human MET chimeric protein CH5; assay: ELISA, protein in solid phase
[12] = biological target: llama-human MET chimeric protein CH4; assay: ELISA, protein in solid phase
llama MET ECD (llama) = assay: ELISA, protein in solid phase

Row | binding [1] | binding [2] | binding [3] | binding [4] | binding [5] | binding [6] | binding [7] | binding [8] | binding [9] | binding [10] | binding [11] | binding [12] | binding (llama MET ECD (llama)) | Binder
1 | binds | binds |  |  |  |  |  |  |  |  |  |  |  | Fab 71G2 (Fab, V domains shown, llama Fab (VH-CH1, lambda VL-CL) with MYC flag, crude periplasmic extract) VH: EVQLQESGGGLVQPGGSLRLSCAASGFTFSIYDMSWVRQAPGKGLEWVSTINSDGSSTSYVDSVKGRFTISRDNAKNTLYLQMNSLKPEDTAVYYCAKVYGSTWDVGPMGYGMDYWGKGTLVTVSS VL: SSALTQPSALSVSLGQTARITCQGGSLGSSYAHWYQQKPGQAPVLVIYGDDSRPSGIPERFSGSSSGGTATLTISGAQAEDEDDYYCQSTDSSGNTVFGGGTRLTVL
2 |  |  | binds | binds | binds | binds | binds | binds | binds | binds | no binding (tested: 0-20 nM) | no binding (tested: 0-20 nM) | no binding (tested: 0-20 nM) | chimeric llama-human IgG1 mAb 71G2 (antibody, V domains shown) VH: EVQLQESGGGLVQPGGSLRLSCAASGFTFSIYDMSWVRQAPGKGLEWVSTINSDGSSTSYVDSVKGRFTISRDNAKNTLYLQMNSLKPEDTAVYYCAKVYGSTWDVGPMGYGMDYWGKGTLVTVSS VL: SSALTQPSALSVSLGQTARITCQGGSLGSSYAHWYQQKPGQAPVLVIYGDDSRPSGIPERFSGSSSGGTATLTISGAQAEDEDDYYCQSTDSSGNTVFGGGTRLTVL
3 | binds | binds |  |  |  |  |  |  |  |  |  |  |  | Fab 71C3 (Fab, V domains shown, llama Fab (VH-CH1, lambda VL-CL) with MYC flag, crude periplasmic extract) VH: QLQLVESGGGLVQPGGSLRLSCAASGFTFSSHAMSWVRQAPGKGLEWVSAINSGGGSTSYADSVKGRFTISRDNAKNTLYLQMNSLKPEDTAVYYCAKELRFDLARYTDYEAWDYWGQGTQVTVSS VL: SYELTQPSALSVTLGQTAKITCQGGSLGSSYAHWYQQKPGQAPVLVIYDDDSRPSGIPERFSGSSSGGTATLTISGAQAEDEGDYYCQSADSSGNAAVFGGGTHLTVL
4 | binds | binds |  |  |  |  |  |  |  |  |  |  |  | Fab 71D6 (Fab, V domains shown, llama Fab (VH-CH1, lambda VL-CL) with MYC flag, crude periplasmic extract) VH: ELQLVESGGGLVQPGGSLRLSCAASGFTFSSYGMSWVRQAPGKGLEWVSAINSYGGSTSYADSVKGRFTISRDNAKNTLYLQMNSLKPEDTAVYYCAKEVRADLSRYNDYESYDYWGQGTQVTVSS VL: QPVLNQPSALSVTLGQTAKITCQGGSLGARYAHWYQQKPGQAPVLVIYDDDSRPSGIPERFSGSSSGGTATLTISGAQAEDEGDYYCQSADSSGSVFGGGTHLTVL
5 | binds | binds |  |  |  |  |  |  |  |  |  |  |  | Fab 71A3 (Fab, V domains shown, llama Fab (VH-CH1, lambda VL-CL) with MYC flag, crude periplasmic extract) VH: EVQLVESGGGLVQPGGSLRLSCAASGFSFKDYDITWVRQAPGKGLEWVSTITSRSGSTSYVDSVKGRFTISGDNAKNTLYLQMNSLKPEDTAVYYCAKVYATTWDVGPLGYGMDYWGKGTLVTVSS VL: SYELTQPSALSVTLGQTAKITCQGGSLGSSYAHWYQQKPGQAPVLVIYDDDSRPSGIPERFSGSSSGGTATLTISGAQAEDEGDYYCQSADSSGNAAVFGGGTHLTVL
6 |  |  | binds | binds | binds | binds | binds | binds | binds | binds | no binding (tested: 0-20 nM) | no binding (tested: 0-20 nM) | no binding (tested: 0-20 nM) | chimeric llama-human IgG1 mAb 71A3 (antibody, V domains shown) VH: EVQLVESGGGLVQPGGSLRLSCAASGFSFKDYDITWVRQAPGKGLEWVSTITSRSGSTSYVDSVKGRFTISGDNAKNTLYLQMNSLKPEDTAVYYCAKVYATTWDVGPLGYGMDYWGKGTLVTVSS VL: SYELTQPSALSVTLGQTAKITCQGGSLGSSYAHWYQQKPGQAPVLVIYDDDSRPSGIPERFSGSSSGGTATLTISGAQAEDEGDYYCQSADSSGNAAVFGGGTHLTVL
7 |  |  | binds | binds | binds | binds | binds | binds | binds | binds | no binding (tested: 0-20 nM) | no binding (tested: 0-20 nM) | no binding (tested: 0-20 nM) | chimeric llama-human IgG1 mAb 71D6 (antibody, V domains shown) VH: ELQLVESGGGLVQPGGSLRLSCAASGFTFSSYGMSWVRQAPGKGLEWVSAINSYGGSTSYADSVKGRFTISRDNAKNTLYLQMNSLKPEDTAVYYCAKEVRADLSRYNDYESYDYWGQGTQVTVSS VL: QPVLNQPSALSVTLGQTAKITCQGGSLGARYAHWYQQKPGQAPVLVIYDDDSRPSGIPERFSGSSSGGTATLTISGAQAEDEGDYYCQSADSSGSVFGGGTHLTVL
8 |  |  | binds | binds | binds | binds | binds | binds | binds | binds | no binding (tested: 0-20 nM) | no binding (tested: 0-20 nM) | no binding (tested: 0-20 nM) | chimeric llama-human IgG1 mAb 71C3 (antibody, V domains shown) VH: QLQLVESGGGLVQPGGSLRLSCAASGFTFSSHAMSWVRQAPGKGLEWVSAINSGGGSTSYADSVKGRFTISRDNAKNTLYLQMNSLKPEDTAVYYCAKELRFDLARYTDYEAWDYWGQGTQVTVSS VL: SYELTQPSALSVTLGQTAKITCQGGSLGSSYAHWYQQKPGQAPVLVIYDDDSRPSGIPERFSGSSSGGTATLTISGAQAEDEGDYYCQSADSSGNAAVFGGGTHLTVL
9 | binds | binds |  |  |  |  |  |  |  |  |  |  |  | Fab 71D4 (Fab, V domains shown, llama Fab (VH-CH1, lambda VL-CL) with MYC flag, crude periplasmic extract) VH: ELQLVESGGGLVQPGGSLRLSCAASGFTFSGYGMSWVRQAPGKGLEWVSDINSGGGSTSYADSVKGRFTISRDNAKNTLYLQMNSLKPEDTAVYYCAKDMRLYLARYNDYEAWDYWGQGTQVTVSS VL: SSALTQPSALSVTLGQTAKITCQGGSLGSSYAHWYQQKPGQAPVLVIYDDDSRPSGIPERFSGSSSGGTATLTISGAQAEDEGDYYCQSADSSGNAAVFGGGTHLTVL
10 |  |  | binds | binds | binds | binds | binds | binds | binds | binds | no binding (tested: 0-20 nM) | no binding (tested: 0-20 nM) | no binding (tested: 0-20 nM) | chimeric llama-human IgG1 mAb 71D4 (antibody, V domains shown) VH: ELQLVESGGGLVQPGGSLRLSCAASGFTFSGYGMSWVRQAPGKGLEWVSDINSGGGSTSYADSVKGRFTISRDNAKNTLYLQMNSLKPEDTAVYYCAKDMRLYLARYNDYEAWDYWGQGTQVTVSS VL: SSALTQPSALSVTLGQTAKITCQGGSLGSSYAHWYQQKPGQAPVLVIYDDDSRPSGIPERFSGSSSGGTATLTISGAQAEDEGDYYCQSADSSGNAAVFGGGTHLTVL
11 | binds | binds |  |  |  |  |  |  |  |  |  |  |  | Fab 76H10 (Fab, V domains shown, llama Fab (VH-CH1, lambda VL-CL) with MYC flag, crude periplasmic extract) VH: QLQLVESGGGLVQPGGSLRVSCTASGFTFNTYYMTWVRQAPGKGLEWVSDINSGGGTYYADSVKGRFTISRDNAKNTLYLQMNSLKPEDTALYYCVRVRIWPVGYDYWGQGTQVTVSS VL: QAVVTQEPSLSVSPGGTVTLTCGLSSGSVTTSNYPGWFQQTPGQAPRTLIYNTNNRHSGVPSRFSGSISGNKAALTITGAQPEDEADYYCSLYTGSYTTVFGGGTHLTVL
12 | binds | binds |  |  |  |  |  |  |  |  |  |  |  | Fab 72F8 (Fab, V domains shown, llama Fab (VH-CH1, lambda VL-CL) with MYC flag, crude periplasmic extract) VH: ELQLVESGGGLVQPGGSLRLSCAASGFTFSNYVMSWVRQAPGKGLEWVSDTNSGGSTSYADSVKGRFTISRDNAKNTLYLQMNSLKPEDTALYYCARSFFYGMNYWGKGTQVTVSS VL: QSALTQPPSLSASPGSSVRLTCTLSSGNNIGSYDISWYQQKAGSPPRYLLNYYTDSRKHQDSGVPSRFSGSKDASANAGLLLISGLQPEDEADYYCSAYKSGSYRWVFGGGTHVTVL
13 | binds | binds |  |  |  |  |  |  |  |  |  |  |  | Fab 71G3 (Fab, V domains shown, llama Fab (VH-CH1, lambda VL-CL) with MYC flag, crude periplasmic extract) VH: QVQLVESGGGLVQPGGSLRVSCAASGFTFSTYYMSWVRQAPGKGLEWVSDIRTDGGTYYADSVKGRFTMSRDNAKNTLYLQMNSLKPEDTALYYCARTRIFPSGYDYWGQGTQVTVSS VL: QAVVTQEPSLSVSPGGTVTLTCGLSSGSVTTSNYPGWFQQTPGQAPRTLIYNTNSRHSGVPSRFSGSISGNKAALTIMGAQPEDEADYYCSLYPGSTTVFGGGTHLTVL
14 | binds | binds |  |  |  |  |  |  |  |  |  |  |  | Fab 76G7 (Fab, V domains shown, llama Fab (VH-CH1, lambda VL-CL) with MYC flag, crude periplasmic extract) VH: QVQLVESGGNLVQPGGSLRLSCAASGFTFSNYYMSWVRQAPGKGLEWVSDIYSDGSTTWYSDSVKGRFTISRDNAKNTLSLQMNSLKSEDTAVYYCARVKIYPGGYDAWGQGTQVTVSS VL: QAGLTQPPSVSGSPGKTVTISCAGNSSDVGYGNYVSWYQQFPGMAPKLLIYLVNKRASGITDRFSGSKSGNTASLTISGLQSEDEADYYCASYTGSNNIVFGGGTHLTVL
